Source: paper doi:10.1101/2023.09.12.557395

Protein sequences, listed by entry. Tags and fused reporters are not part of them. Lines headed by an entry give the natural chain unless they say otherwise; changes in a name come on top.
UniProt Q6RFH8, whole entry, stated change not applied: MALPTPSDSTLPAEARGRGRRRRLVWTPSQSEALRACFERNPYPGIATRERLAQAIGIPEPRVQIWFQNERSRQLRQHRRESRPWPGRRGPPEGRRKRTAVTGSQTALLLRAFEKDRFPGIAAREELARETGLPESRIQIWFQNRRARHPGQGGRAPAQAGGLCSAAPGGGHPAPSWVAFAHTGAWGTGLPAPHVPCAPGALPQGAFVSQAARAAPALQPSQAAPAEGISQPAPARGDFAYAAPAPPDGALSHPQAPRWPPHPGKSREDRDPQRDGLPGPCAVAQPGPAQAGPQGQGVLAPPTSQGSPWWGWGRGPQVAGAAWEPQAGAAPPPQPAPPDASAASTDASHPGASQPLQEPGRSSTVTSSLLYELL

Target: DUX4c (Strep-tagged) (UniProt Q6RFH8)
Experiment: affinity purification with mass spectrometry

B1: RFPL4A (untagged, overexpressed) (protein, UniProt A6NLU0 1-287)
chain: MAEHFKQIIRCPVCLKDLEEAVQLKCGYACCLQCLNSLQKEPDGEGLLCRFCSVVSQKDDIKPKYKLRALVSIIKELEPKLKSVLTMNPRMRKFQVDMTFDVDTANNYLIISEDLRSFRSGDLSQNRKEQAERFDTALCVLGTPRFTSGRHYWEVDVGTSQVWDVGVCKESVNRQGKIVLSSEHGFLTVGCREGKVFAASTVPMTPLWVSPQLHRVGIFLDVGMRSIAFYNVSDGCHIYTFIEIPVCEPWRPFFAHKRGSQDDQSILSICSVINPSAASAPVSSEGK
B1 was tested, and the binding was “binds”.

No constants are given. Whether binding was seen depends on the method and setting. Binding seen in cells or lysates may run through a third protein. Here binding means that the protein was enriched with, or labelled near, the bait; the list need not be complete. Sequences can lack the tags named with a protein.
